{"source": "the supplement of paper PMC8728848", "binders": {"B1": {"name": "SynCAM (Mus musculus) (protein)", "chain": "MASAVLPSGSQCAAAAAVAAAAAPPGLRLRLLLLLLSAAALIPTGDGQNLFTKDVTVIEGEVATISCQVNKSDDSVIQLLNPNRQTIYFRDFRPLKDSRFQLLNFSSSELKVSLTNVSISDEGRYFCQLYTDPPQESYTTITVLVPPRNLMIDIQKDTAVEGEEIEVNCTAMASKPATTIRWFKGNKELKGKSEVEEWSDMYTVTSQLMLKVHKEDDGVPVICQVEHPAVTGNLQTQRYLEVQYKPQVHIQMTYPLQGLTREGDAFELTCEAIGKPQPVMVTWVRVDDEMPQHAVLSGPNLFINNLNKTDNGTYRCEASNIVGKAHSDYMLYVYDPPTTIPPP"}}, "test_in_all_cases": "glycan array binding signal (z-score within array); higher = stronger binding", "settings_in_all_cases": "glycan notation: IUPAC condensed, linker removed", "key": {"[1]": {"target": "Neu5Ac(a2-3)GalNAc", "summary_of_the_method": "(§1)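 Arrays were curated from the Consortium for Functional Glycomics database, 3228 in total, and kept only where the protein sequence was available. Binding is expressed as a within-array Z-score. This score was averaged across arrays of the same protein sequence at different concentrations or buffers and across linkers, and negative values can be read as non-binding.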"}, "[2]": {"target": "Neu5Ac(a2-3)GalNAc(b1-4)GlcNAc", "summary_of_the_method": "as §1"}, "[3]": {"target": "Neu5Ac(a2-3)[GalNAc(b1-4)]Gal(b1-4)Glc", "summary_of_the_method": "as §1"}, "[4]": {"target": "Neu5Ac(a2-3)[GalNAc(b1-4)]Gal(b1-4)GlcNAc", "summary_of_the_method": "as §1"}, "[5]": {"target": "Neu5Ac(a2-3)[GalNAc(b1-4)]Gal(b1-4)GlcNAc(b1-3)GalNAc", "summary_of_the_method": "as §1"}, "[6]": {"target": "Neu5Ac(a2-3)[Neu5Ac(a2-6)]GalNAc", "summary_of_the_method": "as §1"}, "[7]": {"target": "Neu5Ac(a2-6)Gal", "summary_of_the_method": "as §1"}, "[8]": {"target": "Neu5Ac(a2-6)Gal(b1-3)GlcNAc(b1-3)[Gal(b1-4)GlcNAc(b1-6)]Gal(b1-4)Glc", "summary_of_the_method": "as §1"}, "[9]": {"target": "Neu5Ac(a2-6)Gal(b1-4)Glc", "summary_of_the_method": "as §1"}, "[10]": {"target": "Neu5Ac(a2-6)Gal(b1-4)GlcNAc", "summary_of_the_method": "as §1"}, "[11]": {"target": "Neu5Ac(a2-6)Gal(b1-4)GlcNAc(b1-2)Man", "summary_of_the_method": "as §1"}, "[12]": {"target": "Neu5Ac(a2-6)Gal(b1-4)GlcNAc(b1-2)Man(a1-3)Man(b1-4)GlcNAc(b1-4)GlcNAc", "summary_of_the_method": "as §1"}, "[13]": {"target": "Neu5Ac(a2-6)Gal(b1-4)GlcNAc(b1-2)Man(a1-3)[Gal(b1-4)GlcNAc(b1-2)Man(a1-6)]Man(b1-4)GlcNAc(b1-4)GlcNAc", "summary_of_the_method": "as §1"}, "[14]": {"target": "Neu5Ac(a2-6)Gal(b1-4)GlcNAc(b1-2)Man(a1-3)[GlcNAc(b1-2)Man(a1-6)]Man(b1-4)GlcNAc(b1-4)GlcNAc", "summary_of_the_method": "as §1"}, "[15]": {"target": "Neu5Ac(a2-6)Gal(b1-4)GlcNAc(b1-2)Man(a1-3)[GlcNAc(b1-4)][Neu5Ac(a2-6)Gal(b1-4)GlcNAc(b1-2)Man(a1-6)]Man(b1-4)GlcNAc(b1-4)GlcNAc", "summary_of_the_method": "as §1"}, "[16]": {"target": "Neu5Ac(a2-6)Gal(b1-4)GlcNAc(b1-2)Man(a1-3)[Man(a1-6)]Man(b1-4)GlcNAc(b1-4)GlcNAc", "summary_of_the_method": "as §1"}, "[17]": {"target": "Neu5Ac(a2-6)Gal(b1-4)GlcNAc(b1-2)Man(a1-3)[Neu5Ac(a2-3)Gal(b1-4)GlcNAc(b1-2)Man(a1-6)]Man(b1-4)GlcNAc(b1-4)GlcNAc", "summary_of_the_method": "as §1"}, "[18]": {"target": "Neu5Ac(a2-6)Gal(b1-4)GlcNAc(b1-2)Man(a1-3)[Neu5Ac(a2-6)Gal(b1-4)GlcNAc(b1-2)Man(a1-6)]Man(b1-4)GlcNAc(b1-4)GlcNAc", "summary_of_the_method": "as §1"}, "[19]": {"target": "Neu5Ac(a2-6)Gal(b1-4)GlcNAc(b1-2)Man(a1-3)[Neu5Ac(a2-6)Gal(b1-4)GlcNAc(b1-2)Man(a1-6)]Man(b1-4)GlcNAc(b1-4)[Fuc(a1-6)]GlcNAc", "summary_of_the_method": "as §1"}, "[20]": {"target": "Neu5Ac(a2-6)Gal(b1-4)GlcNAc(b1-2)Man(a1-6)Man(b1-4)GlcNAc(b1-4)GlcNAc", "summary_of_the_method": "as §1"}, "[21]": {"target": "Neu5Ac(a2-6)Gal(b1-4)GlcNAc(b1-2)Man(a1-6)[Gal(b1-4)GlcNAc(b1-2)Man(a1-3)]Man(b1-4)GlcNAc(b1-4)GlcNAc", "summary_of_the_method": "as §1"}, "[22]": {"target": "Neu5Ac(a2-6)Gal(b1-4)GlcNAc(b1-2)Man(a1-6)[GlcNAc(b1-2)Man(a1-3)]Man(b1-4)GlcNAc(b1-4)GlcNAc", "summary_of_the_method": "as §1"}}, "note": "The other results are listed elsewhere or left out.", "data": [{"binder": "B1", "values": [{"measurement": "glycan array binding signal (z-score)", "setting": "[1]", "value": -0.47}, {"measurement": "glycan array binding signal (z-score)", "setting": "[2]", "value": -0.627}, {"measurement": "glycan array binding signal (z-score)", "setting": "[3]", "value": -0.816}, {"measurement": "glycan array binding signal (z-score)", "setting": "[4]", "value": -0.983}, {"measurement": "glycan array binding signal (z-score)", "setting": "[5]", "value": -0.017}, {"measurement": "glycan array binding signal (z-score)", "setting": "[6]", "value": -0.852}, {"measurement": "glycan array binding signal (z-score)", "setting": "[7]", "value": -0.247}, {"measurement": "glycan array binding signal (z-score)", "setting": "[8]", "value": -0.338}, {"measurement": "glycan array binding signal (z-score)", "setting": "[9]", "value": -0.264}, {"measurement": "glycan array binding signal (z-score)", "setting": "[10]", "value": -0.424}, {"measurement": "glycan array binding signal (z-score)", "setting": "[11]", "value": -0.07}, {"measurement": "glycan array binding signal (z-score)", "setting": "[12]", "value": -1.36}, {"measurement": "glycan array binding signal (z-score)", "setting": "[13]", "value": -0.518}, {"measurement": "glycan array binding signal (z-score)", "setting": "[14]", "value": -0.63}, {"measurement": "glycan array binding signal (z-score)", "setting": "[15]", "value": -1.12}, {"measurement": "glycan array binding signal (z-score)", "setting": "[16]", "value": -0.096}, {"measurement": "glycan array binding signal (z-score)", "setting": "[17]", "value": -1.12}, {"measurement": "glycan array binding signal (z-score)", "setting": "[18]", "value": -0.192}, {"measurement": "glycan array binding signal (z-score)", "setting": "[19]", "value": 0.384}, {"measurement": "glycan array binding signal (z-score)", "setting": "[20]", "value": -0.665}, {"measurement": "glycan array binding signal (z-score)", "setting": "[21]", "value": 1.72}, {"measurement": "glycan array binding signal (z-score)", "setting": "[22]", "value": -1.23}]}]}
